Laboratory results as given in patent publication US11241441B2, “Formulations of lixivaptan for the treatment of polycystic disease” (PALLADIO BIOSCIENCES, INC., priority 2017, dated 2022).

System: PCK rats
Test: In vivo study of the effects of lixivaptan on PCK rats
Set-up: species or system rat
Settings: for Body Weight: 8 weeks
Description: A study was performed that examined the effect of lixivaptan (0.5% or 1% w/w lixivaptan in ground rodent chow) on bodyweight, kidney weight, kidney cAMP, urine output, and serum electrolyte concentration in PCK rats, an orthologous animal model of Autosomal Recessive PKD that develops a phenotype reminiscent of ADPKD.
Experimental animals and study design. PCK rats were divided into control and treatment groups at four weeks of age (n=59, ˜10 animals per treatment group and gender). Lixivaptan was dissolved in DMSO and added to ground rodent chow (Regrind Labdiet 5053) at 0.5% or 1.0% concentration (w/w) by homogenous mixing, whereas control animals received the same diet without lixivaptan. Animals were exposed to control- or lixivaptan-diet for eight weeks and were sacrificed at twelve weeks of age.
Experimental Protocol. […] At the end of the dosing period, the animals were weighed and anesthetized with ketamine 90 mg/kg and xylazine 10 mg/kg, IP. Blood samples were obtained by cardiac puncture for determination of plasma electrolytes, creatinine and plasma urea levels. The right kidney and part of the liver were placed into pre-weighed vials containing 10% formaldehyde in phosphate buffer (pH 7.4). The tissues were embedded in paraffin for histological studies. The left kidneys were immediately frozen in liquid nitrogen for determination of cAMP.
Statistical Analysis. Comparisons between groups were analyzed using one-way or two-way analysis of variance (ANOVA) with least significant difference comparisons of the means or student's t-test as appropriate. Data were expressed as means±SD.

For `Cc1ccc(F)cc1C(=O)Nc1ccc(C(=O)N2Cc3cccn3Cc3ccccc32)c(Cl)c1` [Lixivaptan, 5-fluoro-2-methyl-N-[4-(5H-pyrrolo[2,1-C] [1,4]benzodiazepin-10(11H)-ylcarbonyl)-3-chlorophenyl]benzamide], the “Plasma Potassium” value (PCK rats F, 0.5% Lixivaptan) was 6.0 ± 0.9 mEq/L, the “Body Weight” value (PCK rats F, 0.5% Lixivaptan in chow) was 254 ± 13 g and the “Plasma Potassium” value (PCK rats F, 1.0% Lixivaptan) was 6.9 ± 0.9 mEq/L. The “Body Weight” value (PCK rats F, 1.0% Lixivaptan in chow) was 236 ± 26 g, the “Plasma Potassium” value (PCK rats M, 0.5% Lixivaptan) was 6.3 ± 0.42 mEq/L and the “Body Weight” value (PCK rats M, 0.5% Lixivaptan in chow) was 434 ± 24 g. The “Plasma Potassium” value (PCK rats M, 1.0% Lixivaptan) was 6.1 ± 0.9 mEq/L and the “Body Weight” value (PCK rats M, 1.0% Lixivaptan in chow) was 403 ± 33 g.
